# Measurements taken from the supplement of paper PMC9135407.
# Where “and” joins values, the source holds several entries; their conditions need not be identical. Equal values may be shown once. Where a name gives a salt, the structure may show the parent alone. ± gives the standard deviation of the averaged measurements. The list shows a part of the results. Plates or batches differ in their baseline, so values are only roughly comparable.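 Assay uses culture-activated primary human stellate myofibroblasts; lipid droplet recovery indicates inactivation. Measured: proportion of Hoechst-counted cells over a plate-specific Bodipy cutoff, duplicate wells, DMSO and nortriptyline as per-plate negative and positive controls. A hit scores, control-normalized, above the plate's top-tenth-percentile nortriptyline wells or ranks among its three best wells. Final well concentrations not reported.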
# Tested on: primary human hepatic stellate cells (donor 1)
# Assay: percent Bodipy-positive cells; higher = more lipid droplet accumulation
# Settings: 48 h
# Experimental: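 Primary lipid accumulation screen in primary human hepatic stellate cell myofibroblasts (donor 1, passage 8) in 384-well plates. 100 nL of library compound was pin-transferred into 30 µL medium in duplicate, and cells were treated for 48 h. The 'Scaled' score combines distance from plate baseline, toxicity and reproducibility penalties, and is normalised to nortriptyline (positive) and DMSO (negative) controls on each plate. A hit is defined as scaled >0.85 or among the top 3 wells per plate.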
# [1] = library stock concentration: 10 mM
# [2] = library stock concentration: 3.33 mM
# [3] = library stock concentration: 1 mM
# [4] = library stock concentration: 80 uM
# [5] = library stock concentration: 400 uM
# [6] = library stock concentration: 2 mM
smiles,measurement,setting,value
C=CC1=C(C)c2cc3[nH]c(cc4nc(cc5[nH]c(cc1n2)c(C)c5CCC(=O)O)C(CCC(=O)O)=C4C)c(C)c3C=C [Protoporphyrin ix],percent Bodipy-positive cells,[1],14.2 ± 2.4%
"Cc1c(C2CCN(CCc3ccccc3)CC2)noc1-c1ccc(Cl)cc1 [L-741,742 hydrochloride]",percent Bodipy-positive cells,[1],35.3 ± 3.5%
O=C(O)c1ccc(-c2ccc3cc(O)c(C45CC6CC(CC(C6)C4)C5)cc3c2)cc1,percent Bodipy-positive cells,[1],5.16 ± 1.4%
CC(C)c1ccc(NC(=O)Cn2cnc3c2c(=O)n(C)c(=O)n3C)cc1,percent Bodipy-positive cells,[2],10.4 ± 4.6%
same,percent Bodipy-positive cells,[1],11.2 ± 3.6%
C[C@H](NC(=O)/C(C#N)=C/c1cccc(Br)n1)c1ccccc1,percent Bodipy-positive cells,[1],100%
CCNC(=O)c1[nH]nc(-c2cc(Cl)c(O)cc2O)c1-c1ccc(OC)cc1,percent Bodipy-positive cells,[2],81.3 ± 4.8%
CC(C)(C)n1nc(Cc2cccc3ccccc23)c2c(N)ncnc21,percent Bodipy-positive cells,[3],7.92 ± 0.9%
CCNC(=O)Nc1ccc(-c2nc3c(c(N4CCOC[C@@H]4C)n2)CCN(C2COC2)C3)cc1,percent Bodipy-positive cells,[2],21.1 ± 1.7%
same,percent Bodipy-positive cells,[1],15.7 ± 0.52%
CCCN(CCC)S(=O)(=O)c1ccc(C(=O)O)cc1 [Probenecid],percent Bodipy-positive cells,,25.4 ± 5.5%
same,percent Bodipy-positive cells,[2],15.1 ± 1.4%
same,percent Bodipy-positive cells,library stock concentration: 7 mM,9.65 ± 0.7%
same,percent Bodipy-positive cells,[1],35.6% and 17.4%
CCCN(CCC)S(=O)(=O)c1ccc(C(=O)O)cc1,percent Bodipy-positive cells,[1],31.8 ± 8.1%
CCN(CC)C(=O)c1cccnc1,percent Bodipy-positive cells,[1],41.3 ± 4.7%
O=c1[nH]c(=S)[nH]c(-c2ccccc2)c1Cc1c(O)ccc2ccccc12 [Cambinol],percent Bodipy-positive cells,[1],25.6 ± 7.6%
"CCCC/C=C/C=C/C=C/CCCCCCCC(=O)OC [9(Z),11(E),13(E)-Octadecatrienoic Acid methyl ester]",percent Bodipy-positive cells,[3],8.75 ± 0.56%
C[C@]12CC[C@@H]3c4ccc(O)cc4CC[C@H]3[C@@H]1CC[C@@H]2O,percent Bodipy-positive cells,[1],24.9 ± 13%
C[C@]12CC[C@@H]3c4ccc(O)cc4CC[C@H]3[C@@H]1CC[C@@H]2O [Estradiol],percent Bodipy-positive cells,[2],12.4 ± 5.5%
same,percent Bodipy-positive cells,library stock concentration: 7.3 mM,13.8% and 8.37%
same,percent Bodipy-positive cells,[1],13% and 5.39%
same,percent Bodipy-positive cells,library stock concentration: 18.4 mM,31.3 ± 0.12%
C[C@]12CC[C@@H]3c4ccc(O)cc4CC[C@H]3[C@@H]1CC[C@@H]2O [beta-Estradiol],percent Bodipy-positive cells,[1],71.8 ± 3.1%
C[C@]12CC[C@@H]3c4ccc(O)cc4CC[C@H]3[C@@H]1CC[C@@H]2O [Estradiol-17 beta],percent Bodipy-positive cells,,54.4 ± 4.8%
CC(NC(=O)Cc1cc(F)cc(F)c1)C(=O)NC(C(=O)OC(C)(C)C)c1ccccc1 (stereo not given),percent Bodipy-positive cells,[2],9.94 ± 1.1%
same,percent Bodipy-positive cells,[1],10.7 ± 1.6%
CCCCCCCCCCCCCCCCOC[C@H](COP(=O)([O-])OCC[N+]1(C)CCCC1)OC(C)=O [Pyrrolidino PAF C-16],percent Bodipy-positive cells,[3],12.7 ± 3.6%
Cc1c(NC(=O)N2CCOCC2)ccc2c1c1ccccc1n2C(C)C,percent Bodipy-positive cells,[1],17.6 ± 14%
NC(Cc1cc(I)c(Oc2cc(I)c(O)c(I)c2)c(I)c1)C(=O)O (stereo not given) [Thyroxine],percent Bodipy-positive cells,[1],20.7 ± 1.9%
NC(Cc1cc(I)c(Oc2cc(I)c(O)c(I)c2)c(I)c1)C(=O)O (stereo not given) [Thyroxine (L)],percent Bodipy-positive cells,,18.2 ± 0.31%
CN(C)CC/C=C1/c2ccccc2Sc2ccc(Cl)cc21 [Chlorprothixene],percent Bodipy-positive cells,[2],44.9 ± 11%
CN(C)CC/C=C1/c2ccccc2Sc2ccc(Cl)cc21 [Chlorprothixene hydrochloride],percent Bodipy-positive cells,library stock concentration: 5.7 mM,81.69 ± 0.15%
same,percent Bodipy-positive cells,[1],98.5% and 78.5%
N.N.N.N.N.N.N.N.N.N.N.N.N.N.O.O.[Cl-].[Cl-].[Cl-].[Cl-].[Cl-].[Cl-].[Ru+4].[Ru+5].[Ru+5] [Ruthenium red],percent Bodipy-positive cells,[1],13 ± 2.6%
CN1CCC(c2c(O)cc(O)c3c(=O)cc(-c4ccccc4Cl)oc23)C1CO (stereo not given) [Riviciclib],percent Bodipy-positive cells,[4],24.7 ± 6.7%
same,percent Bodipy-positive cells,[5],48.9 ± 7.4%
same,percent Bodipy-positive cells,[6],32.9 ± 5.8%
same,percent Bodipy-positive cells,[1],26.2 ± 3.6%
CC(=O)[C@H]1CC[C@H]2[C@@H]3CCC4=CC(=O)CC[C@]4(C)[C@H]3CC[C@]12C,percent Bodipy-positive cells,[1],46.6 ± 6.5%
CC(=O)[C@H]1CC[C@H]2[C@@H]3CCC4=CC(=O)CC[C@]4(C)[C@H]3CC[C@]12C [Progesterone],percent Bodipy-positive cells,,51.2 ± 4.9%
same,percent Bodipy-positive cells,[2],11.9 ± 0.86%
same,percent Bodipy-positive cells,library stock concentration: 6.4 mM,44.4% and 31%
Cn1cc(CNCC2CCN(c3ncc(C(=O)NO)cn3)CC2)c2ccccc21,percent Bodipy-positive cells,[2],73.6 ± 8.9%
CC(C)(C)OC(=O)Nc1cccc2[nH]ccc12 [(1H-Indol-4-yl)-Carbamic Acid tert-butyl ester],percent Bodipy-positive cells,[3],8.92 ± 1.7%
CCCCCCC(Sc1nc(Cl)cc(NCc2ccc(-c3ccccc3)cc2)n1)C(=O)O (stereo not given),percent Bodipy-positive cells,[3],20.1 ± 6.7%
CN1CCCC(CC2c3ccccc3Sc3ccccc32)C1.Cl.O (stereo not given) [Metixene hydrochloride],percent Bodipy-positive cells,,95.486 ± 0.023%
COc1ccc2[nH]c([S+]([O-])Cc3ncc(C)c(OC)c3C)nc2n1 (stereo not given) [Tenatoprazole],percent Bodipy-positive cells,library stock concentration: 5.8 mM,12.8 ± 0.66%
CCOC(=O)CCNc1cc(N2CCc3ccccc3CC2)nc(-c2ccccn2)n1,percent Bodipy-positive cells,[4],39 ± 2.8%
same,percent Bodipy-positive cells,[5],30.7 ± 1.2%
same,percent Bodipy-positive cells,[6],39.6 ± 8.2%
same,percent Bodipy-positive cells,[2],9.59 ± 6.8%
same,percent Bodipy-positive cells,[1],45.5% and 37.7%
"CCCCCCCC(=O)OC[C@H](CO)OC(=O)CCCCCCC [1,2-Dioctanoyl-sn-glycerol]",percent Bodipy-positive cells,[3],7.09 ± 0.99%
"CCCCCCCC(=O)OC[C@H](CO)OC(=O)CCCCCCC [1,2-Dioctanoyl-SN-glycerol]",percent Bodipy-positive cells,[3],6.11 ± 2.9%
CN(C)CCOC(c1ccccc1)c1ccccc1 [Diphenhydramine hydrochloride],percent Bodipy-positive cells,,60.3 ± 7.4%
same,percent Bodipy-positive cells,library stock concentration: 6.9 mM,27.3 ± 13%
CN(C)CCOC(c1ccccc1)c1ccccc1 [Diphenhydramine HCl],percent Bodipy-positive cells,[2],18.4 ± 4.2%
same,percent Bodipy-positive cells,library stock concentration: 7.8 mM,25.9 ± 4.3%
same,percent Bodipy-positive cells,[1],36.6 ± 2.6%

# Two successive entries already listed:
smiles,measurement,setting,value
CCOC(=O)CCNc1cc(N2CCc3ccccc3CC2)nc(-c2ccccn2)n1,percent Bodipy-positive cells,[6],39.6 ± 8.2%
same,percent Bodipy-positive cells,[2],9.59 ± 6.8%
